Assay results: PMC3703528
Results are given in words; binding and its absence hold for the method and conditions named.

Protein sequences, listed by entry. Tags and fused reporters are not part of them. Residues count along the entry.
UniProt Q9BXR5, residues 632-775: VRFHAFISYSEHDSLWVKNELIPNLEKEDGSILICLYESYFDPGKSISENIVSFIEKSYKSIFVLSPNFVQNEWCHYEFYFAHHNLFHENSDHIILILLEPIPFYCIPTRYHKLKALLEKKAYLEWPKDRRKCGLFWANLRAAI
UniProt O60603, residues 639-782: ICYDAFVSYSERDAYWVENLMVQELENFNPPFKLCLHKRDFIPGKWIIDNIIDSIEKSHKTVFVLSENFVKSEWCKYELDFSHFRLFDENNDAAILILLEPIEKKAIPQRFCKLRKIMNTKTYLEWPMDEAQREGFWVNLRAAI
UniProt O15455, residues 754-897: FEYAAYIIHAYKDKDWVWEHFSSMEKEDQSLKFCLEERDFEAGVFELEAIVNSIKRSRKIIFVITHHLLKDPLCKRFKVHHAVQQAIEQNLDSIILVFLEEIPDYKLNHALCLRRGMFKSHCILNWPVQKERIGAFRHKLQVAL
UniProt O00206, residues 672-815: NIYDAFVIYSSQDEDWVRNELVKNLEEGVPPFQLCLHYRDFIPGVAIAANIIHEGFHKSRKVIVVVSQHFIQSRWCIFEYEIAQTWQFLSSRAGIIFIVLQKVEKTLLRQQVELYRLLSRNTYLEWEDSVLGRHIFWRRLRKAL
UniProt O60602, residues 691-836: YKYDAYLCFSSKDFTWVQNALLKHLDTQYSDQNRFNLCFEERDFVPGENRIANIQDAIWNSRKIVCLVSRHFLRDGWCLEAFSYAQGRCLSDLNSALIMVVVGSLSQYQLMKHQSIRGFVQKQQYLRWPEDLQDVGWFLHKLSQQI
UniProt Q9Y2C9, residues 640-781: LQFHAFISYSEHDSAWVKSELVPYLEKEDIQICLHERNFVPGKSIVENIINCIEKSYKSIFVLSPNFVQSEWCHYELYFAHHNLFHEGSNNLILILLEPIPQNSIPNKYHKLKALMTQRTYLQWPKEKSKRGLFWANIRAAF
UniProt Q9NYK1, residues 889-1033: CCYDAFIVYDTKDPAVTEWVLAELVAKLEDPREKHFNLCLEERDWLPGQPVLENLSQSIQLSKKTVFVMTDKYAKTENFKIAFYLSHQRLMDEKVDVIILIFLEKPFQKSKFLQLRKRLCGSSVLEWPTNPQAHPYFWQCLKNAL
UniProt Q9NR97, residues 878-1022: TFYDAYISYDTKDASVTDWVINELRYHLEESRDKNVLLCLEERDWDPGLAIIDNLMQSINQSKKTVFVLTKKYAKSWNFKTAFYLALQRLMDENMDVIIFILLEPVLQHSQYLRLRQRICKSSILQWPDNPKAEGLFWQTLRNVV
UniProt Q86XR7: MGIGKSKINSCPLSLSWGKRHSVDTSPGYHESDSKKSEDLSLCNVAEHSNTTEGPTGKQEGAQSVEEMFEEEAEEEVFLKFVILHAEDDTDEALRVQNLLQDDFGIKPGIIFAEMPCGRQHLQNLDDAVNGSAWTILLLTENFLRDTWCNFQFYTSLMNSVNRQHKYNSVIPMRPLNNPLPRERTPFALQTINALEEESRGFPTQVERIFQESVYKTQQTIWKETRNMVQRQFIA
UniProt Q8YF53: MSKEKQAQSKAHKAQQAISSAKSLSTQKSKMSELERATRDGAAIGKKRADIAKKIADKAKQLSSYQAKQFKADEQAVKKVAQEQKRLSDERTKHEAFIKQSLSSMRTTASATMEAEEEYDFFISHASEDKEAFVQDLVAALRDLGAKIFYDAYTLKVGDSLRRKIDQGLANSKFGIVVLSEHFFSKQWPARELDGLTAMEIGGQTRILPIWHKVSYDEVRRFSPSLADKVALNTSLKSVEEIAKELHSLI

What was measured:
Assay in all cases: two-hybrid
TLR1 TIR domain = biological target: T1, TLR1 TIR domain (UniProt Q15399)
T1 sequence: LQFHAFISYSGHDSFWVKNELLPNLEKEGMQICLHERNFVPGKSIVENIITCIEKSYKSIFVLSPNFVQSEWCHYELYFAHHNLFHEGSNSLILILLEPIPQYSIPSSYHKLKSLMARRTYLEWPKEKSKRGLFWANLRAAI

TLR10 TIR domain = TLR10 TIR domain (UniProt Q9BXR5)
TLR2 TIR domain = TLR2 TIR domain (UniProt O60603)
TLR3 TIR domain = TLR3 TIR domain (UniProt O15455)
TLR4 TIR domain = TLR4 TIR domain (UniProt O00206)
TLR5 TIR domain = TLR5 TIR domain (UniProt O60602)
TLR6 TIR domain = TLR6 TIR domain (UniProt Q9Y2C9)
TLR7 TIR domain = TLR7 TIR domain (UniProt Q9NYK1)
TLR8 TIR domain = TLR8 TIR domain (UniProt Q9NR97)
TLR9 TIR domain = biological target: T2, TLR9 TIR domain (UniProt Q9NR96)
T2 sequence: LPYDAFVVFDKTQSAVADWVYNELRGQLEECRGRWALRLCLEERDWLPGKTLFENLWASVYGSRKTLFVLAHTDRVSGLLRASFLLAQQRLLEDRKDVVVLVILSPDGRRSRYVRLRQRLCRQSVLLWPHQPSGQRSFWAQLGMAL

TRAM = TRAM (UniProt Q86XR7)

Measured: binding

BtpA (B. melitensis 16 M, BMEI1674) (from UniProt Q8YF53 1-250)
no binding: all assays above
